PubChem BioAssay AID1224830, NIAID – 2016
Test: 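Regulators of TLR4 signalling towards TNF-alpha in macrophage-like cells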 (primary screen). System: human THP-1 monocytic leukaemia cells, TNF dual-luciferase reporter clone, PMA-differentiated to macrophage-like cells. Reagents: siRNA pool against human genes, 50 nM. Time to read-out: LPS for 4 h, given about 3 days after siRNA transfection. Conditions: bacterial LPS (TLR4 ligand), 10 ng/ml. Detection: 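Ratio of firefly to renilla light, scaled to the plate median and expressed as a robust z-score per replicate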. Reading the numbers: TNF reporter robust z-score: higher = stronger TNF reporter response to LPS. Hit rule: 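a well is active when its z-score exceeds 2.8 or falls below -1.5; control wells carry no call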.
The whole screen tested about 18,000 reagents; shown is a part drawn at random. About 2,900 of all reagents (16%) were called active. 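Calls are made per well; low scores hint the gene aids the LPS response, high scores that it dampens it.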 Repeated entries: four replicate wells of each siRNA pool.

TNF reporter robust z-score | Call | Gene
1.22 | inactive | GXYLT2
1.71 | inactive | GXYLT2
-0.1 | inactive | GXYLT2
1.37 | inactive | GXYLT2
0.55 | inactive | ZNF639
-0.06 | inactive | ZNF639
0.45 | inactive | ZNF639
0.49 | inactive | ZNF639
1.55 | inactive | PCDHGB4
0.79 | inactive | PCDHGB4
2.45 | inactive | PCDHGB4
2 | inactive | PCDHGB4
-1.36 | inactive | STAC3
-1 | inactive | STAC3
-0.84 | inactive | STAC3
-0.74 | inactive | STAC3

3 entries from above, set out differently.
TNF reporter robust z-score	Call	Gene
-0.06	inactive	ZNF639
0.45	inactive	ZNF639
0.49	inactive	ZNF639

Next records follow.
TNF reporter robust z-score | Call | Gene
0 | inactive | SPMAP2
0.24 | inactive | SPMAP2
-0.58 | inactive | SPMAP2
-0.25 | inactive | SPMAP2
-0.24 | inactive | GLIPR1L1
-0.17 | inactive | GLIPR1L1
0.32 | inactive | GLIPR1L1
0.53 | inactive | GLIPR1L1
-1 | inactive | VEZT
0.95 | inactive | VEZT
-1.12 | inactive | VEZT
-0.4 | inactive | VEZT
0.42 | inactive | CTNNA1
0.74 | inactive | CTNNA1
1.13 | inactive | CTNNA1
-0.6 | inactive | CTNNA1
-2.2 | active | FMO5
-1.31 | inactive | FMO5
-1.35 | inactive | FMO5
-0.28 | inactive | FMO5
0.31 | inactive | AP1G2
0.57 | inactive | AP1G2
0.59 | inactive | AP1G2
1.18 | inactive | AP1G2
0.04 | inactive | PITHD1
1.72 | inactive | PITHD1
-0.15 | inactive | PITHD1
0.82 | inactive | PITHD1
-1.58 | active | UCKL1
0.64 | inactive | UCKL1
-0.27 | inactive | UCKL1
0.48 | inactive | UCKL1
